In paper PMC8634639:
No constants are given. Whether binding was seen depends on the method and setting. In cells and extracts the contact can be indirect. Some entries that bind do so weakly or less than the wild type.

Chains of the proteins cited; added tags and fusions are not shown.
UniProt Q969H0: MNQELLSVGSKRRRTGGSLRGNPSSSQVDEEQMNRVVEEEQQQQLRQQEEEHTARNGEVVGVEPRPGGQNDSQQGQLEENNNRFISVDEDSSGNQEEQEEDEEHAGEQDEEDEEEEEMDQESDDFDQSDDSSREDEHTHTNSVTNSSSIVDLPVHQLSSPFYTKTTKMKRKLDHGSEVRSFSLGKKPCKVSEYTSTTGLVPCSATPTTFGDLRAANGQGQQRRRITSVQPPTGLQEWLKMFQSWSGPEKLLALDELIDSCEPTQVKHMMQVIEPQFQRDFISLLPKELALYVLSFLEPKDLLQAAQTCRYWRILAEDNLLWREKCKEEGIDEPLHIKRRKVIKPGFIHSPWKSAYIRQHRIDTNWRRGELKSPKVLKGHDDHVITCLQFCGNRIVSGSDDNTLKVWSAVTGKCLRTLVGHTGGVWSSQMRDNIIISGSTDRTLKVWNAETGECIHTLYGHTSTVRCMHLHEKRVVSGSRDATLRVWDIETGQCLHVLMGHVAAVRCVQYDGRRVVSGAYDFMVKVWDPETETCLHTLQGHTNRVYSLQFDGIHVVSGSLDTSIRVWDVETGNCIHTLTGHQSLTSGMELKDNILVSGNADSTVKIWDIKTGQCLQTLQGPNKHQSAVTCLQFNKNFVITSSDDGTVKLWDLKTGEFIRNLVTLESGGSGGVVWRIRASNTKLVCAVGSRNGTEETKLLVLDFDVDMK
UniProt Q00987: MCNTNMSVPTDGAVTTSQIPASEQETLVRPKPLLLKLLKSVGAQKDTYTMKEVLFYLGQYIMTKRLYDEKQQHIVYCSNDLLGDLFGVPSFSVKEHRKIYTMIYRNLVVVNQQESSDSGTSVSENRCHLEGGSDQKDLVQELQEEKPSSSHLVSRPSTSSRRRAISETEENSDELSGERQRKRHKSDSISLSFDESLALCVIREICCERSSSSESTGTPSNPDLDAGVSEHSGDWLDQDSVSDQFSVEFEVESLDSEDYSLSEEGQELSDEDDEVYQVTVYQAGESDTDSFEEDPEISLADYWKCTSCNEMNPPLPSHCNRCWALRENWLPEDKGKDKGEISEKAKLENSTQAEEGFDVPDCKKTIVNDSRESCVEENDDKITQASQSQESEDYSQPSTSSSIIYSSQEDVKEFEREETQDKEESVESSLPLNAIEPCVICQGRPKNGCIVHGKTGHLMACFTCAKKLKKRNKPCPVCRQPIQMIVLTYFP

Key:
[1] = target: T1, VDAC3 (human (endogenous in 293T)) (UniProt Q9Y277); test: co-IP; whole cell lysates (293T cells by the discussion), about 1 mg protein extract, 3 ug anti-VDAC3 or anti-FBXW7 antibody or normal IgG overnight at 4°C, protein A/G beads, four washes with IP lysis buffer, immunoblot of the partner
T1 sequence: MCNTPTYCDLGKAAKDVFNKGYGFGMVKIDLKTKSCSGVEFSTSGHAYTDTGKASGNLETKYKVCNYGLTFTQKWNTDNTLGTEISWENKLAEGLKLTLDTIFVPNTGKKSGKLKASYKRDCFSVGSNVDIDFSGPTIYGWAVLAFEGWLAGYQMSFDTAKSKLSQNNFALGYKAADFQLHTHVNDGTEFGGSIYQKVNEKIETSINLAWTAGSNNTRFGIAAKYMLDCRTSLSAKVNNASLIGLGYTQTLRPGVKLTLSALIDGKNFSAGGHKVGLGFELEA

[2] = target: T1, VDAC3 (human (endogenous in 293T)); test: co-IP; Co-IP and IB assays; no figure shown; cells and direction of the precipitation not stated

Substance | binding [1] | binding [2]
F-box and WD repeat domain containing 7 (FBXW7) (from UniProt Q969H0 1-707) | binds | –
MDM2 (from UniProt Q00987 1-491) | – | no binding
